Data on 1 substance can be found in patent US20220324936 (published 2022).

Non-standard residues stand in square brackets, D forms with d. *: point of attachment. His(Trt) = N[C@@H](Cc1cn(C(c2ccccc2)(c2ccccc2)c2ccccc2)cn1)C(=O)O; Gln(Trt) = N[C@@H](CCC(=O)NC(c1ccccc1)(c1ccccc1)c1ccccc1)C(=O)O; Boc = CC(C)(C)OC(=O)*; tBu = CC(C)(C)*

The nature of this data set: general procedure: Fmoc solid-phase peptide synthesis; CTC resin; DIC/OxymaPure. The note with it: whole synthesis.

In turn, Boc-[His(Trt)]S(tBu)[Gln(Trt)]G-OH returned a crude mass of 2.4 g. For the same substance, for the setting “HPLC, scale of the general procedure 1 gram of starting resin each”, the “crude HPLC purity” value was 97%. The crude yield (molar yield, scale of the general procedure 1 gram of starting resin each) was 91.6%.
